Record: PubChem BioAssay AID686938 (Drosophila RNAi Screening Center, 2013)
Purpose: 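Fly genes required for calcium entry once internal stores are emptied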 (primary screen). System: Drosophila S2R+ cells. Knock-down reagent: long dsRNA against Drosophila genes, about 0.25 µg dsRNA per well, roughly 10,000 cells. Time to read-out: 5 days of knock-down before the calcium assay. Treatment: thapsigargin (SERCA pump blocker) to empty calcium stores; entry signal taken 4 min after adding it. Detection: 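Duplicate raw fluo-4 intensities per well from a plate reader, at rest and four minutes after thapsigargin emptied calcium stores; entry-to-rest ratio filled for only some wells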. Direction: calcium entry signal: higher = stronger calcium signal after store depletion; resting calcium signal: higher = higher resting calcium signal. Units: calcium entry signal in fluorescence units; resting calcium signal in fluorescence units. Hit rule: 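Called when the plate z-score of the entry-to-rest ratio, mean of duplicates, falls below −3; wells with low overall dye signal (Fmax z below −2) or more than five off-targets excluded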. Meaning of the calls: active = strongly reduced calcium entry; inactive = no strong reduction.
The screen tested about 23,000 reagents; shown is a random part of those with a known target gene and a result. Over the whole deposit, 75 (0.33%) were called active. 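Raw plate signals without normalisation; calls rest on plate z-scores that were not deposited; ratio present for only 364 wells.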 Entries without a mark were called inactive. The numbers tell different reagents against one gene apart. Not given: the dose of the treatment.

{"predicted target":"CG6569","dsRNA no.":1,"calcium entry signal, replicate 1":4.29e7,"calcium entry signal, replicate 2":4.07e7,"resting calcium signal, replicate 1":5.58e7,"resting calcium signal, replicate 2":1.96e7}
{"predicted target":"Lrch (Leucine-rich-repeats and calponin homology domain protein)","dsRNA no.":1,"calcium entry signal, replicate 1":3.73e7,"resting calcium signal, replicate 1":2.02e7}
{"predicted target":"rn (rotund)","dsRNA no.":1,"calcium entry signal, replicate 1":4.57e7,"calcium entry signal, replicate 2":3.59e7,"resting calcium signal, replicate 1":2.46e7,"resting calcium signal, replicate 2":1.87e7}
{"predicted target":"rn (rotund)","dsRNA no.":2,"calcium entry signal, replicate 1":4.81e7,"calcium entry signal, replicate 2":4.36e7,"resting calcium signal, replicate 1":2.31e7,"resting calcium signal, replicate 2":2.08e7}
{"predicted target":"rn (rotund)","dsRNA no.":3,"calcium entry signal, replicate 1":3.98e7,"calcium entry signal, replicate 2":3.99e7,"resting calcium signal, replicate 1":2.05e7,"resting calcium signal, replicate 2":1.88e7}
{"predicted target":"rn (rotund)","dsRNA no.":4,"calcium entry signal, replicate 1":4.68e7,"calcium entry signal, replicate 2":3.49e7,"resting calcium signal, replicate 1":2.08e7,"resting calcium signal, replicate 2":1.64e7}
{"predicted target":"rn (rotund)","dsRNA no.":5,"calcium entry signal, replicate 1":3.27e7,"calcium entry signal, replicate 2":4.70e7,"resting calcium signal, replicate 1":1.61e7,"resting calcium signal, replicate 2":2.20e7}
{"predicted target":"mxc (multi sex combs)","dsRNA no.":1,"calcium entry signal, replicate 1":2.15e7,"calcium entry signal, replicate 2":2.11e7,"resting calcium signal, replicate 1":1.18e7,"resting calcium signal, replicate 2":1.10e7}
{"predicted target":"MED19 (Mediator complex subunit 19)","dsRNA no.":1,"calcium entry signal, replicate 1":3.08e7,"calcium entry signal, replicate 2":2.85e7,"resting calcium signal, replicate 1":2.61e7,"resting calcium signal, replicate 2":1.49e7}
{"predicted target":"Kah (Kahuli)","dsRNA no.":1,"calcium entry signal, replicate 1":3.87e7,"calcium entry signal, replicate 2":4.58e7,"resting calcium signal, replicate 1":2.00e7,"resting calcium signal, replicate 2":2.11e7}
{"predicted target":"Kah (Kahuli)","dsRNA no.":2,"calcium entry signal, replicate 1":4.10e7,"calcium entry signal, replicate 2":4.04e7,"resting calcium signal, replicate 1":2.16e7,"resting calcium signal, replicate 2":1.91e7}
{"predicted target":"RhoGEF64C (Rho guanine nucleotide exchange factor at 64C)","dsRNA no.":1,"calcium entry signal, replicate 1":5.13e7,"calcium entry signal, replicate 2":3.46e7,"resting calcium signal, replicate 1":3.51e7,"resting calcium signal, replicate 2":1.56e7}
{"predicted target":"RhoGEF64C (Rho guanine nucleotide exchange factor at 64C)","dsRNA no.":2,"calcium entry signal, replicate 1":3.08e7,"calcium entry signal, replicate 2":5.14e7,"resting calcium signal, replicate 1":1.43e7,"resting calcium signal, replicate 2":2.07e7}
{"predicted target":"Ir52a (Ionotropic receptor 52a)","dsRNA no.":1,"calcium entry signal, replicate 1":3.68e7,"calcium entry signal, replicate 2":4.16e7,"resting calcium signal, replicate 1":1.68e7,"resting calcium signal, replicate 2":1.84e7}
{"predicted target":"CG9399","dsRNA no.":1,"calcium entry signal, replicate 1":2.93e7,"calcium entry signal, replicate 2":3.29e7,"resting calcium signal, replicate 1":1.49e7,"resting calcium signal, replicate 2":1.69e7}
{"predicted target":"CG8543","dsRNA no.":1,"calcium entry signal, replicate 1":3.71e7,"calcium entry signal, replicate 2":4.76e7,"resting calcium signal, replicate 1":1.79e7,"resting calcium signal, replicate 2":2.12e7}
{"predicted target":"CG8543","dsRNA no.":2,"calcium entry signal, replicate 1":3.34e7,"calcium entry signal, replicate 2":4.23e7,"resting calcium signal, replicate 1":1.64e7,"resting calcium signal, replicate 2":2.09e7}
{"predicted target":"Frl (Formin-like)","dsRNA no.":1,"calcium entry signal, replicate 1":3.17e7,"calcium entry signal, replicate 2":2.94e7,"resting calcium signal, replicate 1":1.51e7,"resting calcium signal, replicate 2":1.34e7}
{"predicted target":"Frl (Formin-like)","dsRNA no.":2,"calcium entry signal, replicate 1":3.35e7,"calcium entry signal, replicate 2":3.62e7,"resting calcium signal, replicate 1":1.51e7,"resting calcium signal, replicate 2":1.57e7}
{"predicted target":"Frl (Formin-like)","dsRNA no.":3,"calcium entry signal, replicate 1":3.69e7,"calcium entry signal, replicate 2":4.24e7,"resting calcium signal, replicate 1":1.61e7,"resting calcium signal, replicate 2":2.20e7}
{"predicted target":"CG10909","dsRNA no.":1,"calcium entry signal, replicate 1":3.05e7,"calcium entry signal, replicate 2":3.08e7,"resting calcium signal, replicate 1":1.56e7,"resting calcium signal, replicate 2":1.66e7}

Quoted from above for reference:
{"predicted target":"Frl (Formin-like)","dsRNA no.":2,"calcium entry signal, replicate 1":3.35e7,"calcium entry signal, replicate 2":3.62e7,"resting calcium signal, replicate 1":1.51e7,"resting calcium signal, replicate 2":1.57e7}
{"predicted target":"Frl (Formin-like)","dsRNA no.":3,"calcium entry signal, replicate 1":3.69e7,"calcium entry signal, replicate 2":4.24e7,"resting calcium signal, replicate 1":1.61e7,"resting calcium signal, replicate 2":2.20e7}
{"predicted target":"CG10909","dsRNA no.":1,"calcium entry signal, replicate 1":3.05e7,"calcium entry signal, replicate 2":3.08e7,"resting calcium signal, replicate 1":1.56e7,"resting calcium signal, replicate 2":1.66e7}
